Results are given in words; binding and its absence hold for the method and conditions named. In cells and extracts the contact can be indirect. Some results given as binding are weak or reduced against the parent protein; the word gives no strength. Sequences can lack the tags named with a protein.
Molecular target: T1, ubiquitin-specific peptidase 8 (USP8), labeled with flag (UniProt P40818)
T1 sequence: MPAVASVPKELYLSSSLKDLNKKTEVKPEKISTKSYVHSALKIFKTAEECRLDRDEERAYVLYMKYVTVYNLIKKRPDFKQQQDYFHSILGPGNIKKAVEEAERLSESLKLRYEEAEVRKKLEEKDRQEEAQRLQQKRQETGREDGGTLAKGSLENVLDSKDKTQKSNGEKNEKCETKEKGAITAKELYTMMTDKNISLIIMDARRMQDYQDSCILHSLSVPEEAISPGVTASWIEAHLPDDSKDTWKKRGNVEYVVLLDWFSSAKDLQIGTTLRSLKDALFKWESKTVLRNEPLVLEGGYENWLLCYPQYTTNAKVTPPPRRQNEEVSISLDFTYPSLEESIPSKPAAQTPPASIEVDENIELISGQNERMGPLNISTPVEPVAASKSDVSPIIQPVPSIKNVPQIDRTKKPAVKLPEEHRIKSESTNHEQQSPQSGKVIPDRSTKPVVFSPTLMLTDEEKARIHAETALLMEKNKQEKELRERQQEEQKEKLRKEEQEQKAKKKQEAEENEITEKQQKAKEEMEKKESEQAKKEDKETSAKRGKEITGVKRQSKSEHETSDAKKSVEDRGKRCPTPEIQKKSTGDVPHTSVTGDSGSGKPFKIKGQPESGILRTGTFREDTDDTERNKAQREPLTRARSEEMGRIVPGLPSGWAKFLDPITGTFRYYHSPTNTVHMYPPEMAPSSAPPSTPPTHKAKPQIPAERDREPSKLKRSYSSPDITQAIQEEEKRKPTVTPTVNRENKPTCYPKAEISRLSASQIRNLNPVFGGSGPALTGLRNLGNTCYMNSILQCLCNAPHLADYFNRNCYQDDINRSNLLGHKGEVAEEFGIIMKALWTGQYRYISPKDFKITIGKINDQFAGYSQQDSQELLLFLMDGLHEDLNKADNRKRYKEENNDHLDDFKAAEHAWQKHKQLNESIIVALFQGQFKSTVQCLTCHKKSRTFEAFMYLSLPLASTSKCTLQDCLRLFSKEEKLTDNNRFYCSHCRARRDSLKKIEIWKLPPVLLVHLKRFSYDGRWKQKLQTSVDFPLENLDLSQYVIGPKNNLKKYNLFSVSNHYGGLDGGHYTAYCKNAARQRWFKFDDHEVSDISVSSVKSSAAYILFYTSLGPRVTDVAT
Experiment: co-IP; hBMSC lysate; probed with flag-labeled USP8 or HA-labeled ASCL1 at 4°C for 3 h; immunoprecipitated protein analysed

binding: binds
B1: Achaete cut complex homolog like 1 (ASCL1), labeled with hemagglutinin (HA) (protein, UniProt P50553 1-236)
chain: MESSAKMESGGAGQQPQPQPQQPFLPPAACFFATAAAAAAAAAAAAAQSAQQQQQQQQQQQQAPQLRPAADGQPSGGGHKSAPKQVKRQRSSSPELMRCKRRLNFSGFGYSLPQQQPAAVARRNERERNRVKLVNLGFATLREHVPNGAANKKMSKVETLRSAVEYIRALQQLLDEHDAVSAAFQAGVLSPTISPNYSNDLNSMAGSPVSSYSSDEGSYDPLSPEEQELLDFTNWF

— PMC10567835
